# Experimental data: paper PMC9484695, “The evolutionary conserved proteins CEP90, FOPNL, and OFD1 recruit centriolar distal appendage proteins to initiate their assembly” (PLoS Biology, 2022)
# Protein sequences, listed by entry. Tags and fused reporters are not part of them.
# UniProt Q96NB1: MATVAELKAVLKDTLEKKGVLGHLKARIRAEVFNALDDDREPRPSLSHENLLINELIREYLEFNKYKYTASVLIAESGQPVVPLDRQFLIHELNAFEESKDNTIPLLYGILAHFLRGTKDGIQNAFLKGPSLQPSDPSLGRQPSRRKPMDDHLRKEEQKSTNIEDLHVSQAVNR
# UniProt Q15154: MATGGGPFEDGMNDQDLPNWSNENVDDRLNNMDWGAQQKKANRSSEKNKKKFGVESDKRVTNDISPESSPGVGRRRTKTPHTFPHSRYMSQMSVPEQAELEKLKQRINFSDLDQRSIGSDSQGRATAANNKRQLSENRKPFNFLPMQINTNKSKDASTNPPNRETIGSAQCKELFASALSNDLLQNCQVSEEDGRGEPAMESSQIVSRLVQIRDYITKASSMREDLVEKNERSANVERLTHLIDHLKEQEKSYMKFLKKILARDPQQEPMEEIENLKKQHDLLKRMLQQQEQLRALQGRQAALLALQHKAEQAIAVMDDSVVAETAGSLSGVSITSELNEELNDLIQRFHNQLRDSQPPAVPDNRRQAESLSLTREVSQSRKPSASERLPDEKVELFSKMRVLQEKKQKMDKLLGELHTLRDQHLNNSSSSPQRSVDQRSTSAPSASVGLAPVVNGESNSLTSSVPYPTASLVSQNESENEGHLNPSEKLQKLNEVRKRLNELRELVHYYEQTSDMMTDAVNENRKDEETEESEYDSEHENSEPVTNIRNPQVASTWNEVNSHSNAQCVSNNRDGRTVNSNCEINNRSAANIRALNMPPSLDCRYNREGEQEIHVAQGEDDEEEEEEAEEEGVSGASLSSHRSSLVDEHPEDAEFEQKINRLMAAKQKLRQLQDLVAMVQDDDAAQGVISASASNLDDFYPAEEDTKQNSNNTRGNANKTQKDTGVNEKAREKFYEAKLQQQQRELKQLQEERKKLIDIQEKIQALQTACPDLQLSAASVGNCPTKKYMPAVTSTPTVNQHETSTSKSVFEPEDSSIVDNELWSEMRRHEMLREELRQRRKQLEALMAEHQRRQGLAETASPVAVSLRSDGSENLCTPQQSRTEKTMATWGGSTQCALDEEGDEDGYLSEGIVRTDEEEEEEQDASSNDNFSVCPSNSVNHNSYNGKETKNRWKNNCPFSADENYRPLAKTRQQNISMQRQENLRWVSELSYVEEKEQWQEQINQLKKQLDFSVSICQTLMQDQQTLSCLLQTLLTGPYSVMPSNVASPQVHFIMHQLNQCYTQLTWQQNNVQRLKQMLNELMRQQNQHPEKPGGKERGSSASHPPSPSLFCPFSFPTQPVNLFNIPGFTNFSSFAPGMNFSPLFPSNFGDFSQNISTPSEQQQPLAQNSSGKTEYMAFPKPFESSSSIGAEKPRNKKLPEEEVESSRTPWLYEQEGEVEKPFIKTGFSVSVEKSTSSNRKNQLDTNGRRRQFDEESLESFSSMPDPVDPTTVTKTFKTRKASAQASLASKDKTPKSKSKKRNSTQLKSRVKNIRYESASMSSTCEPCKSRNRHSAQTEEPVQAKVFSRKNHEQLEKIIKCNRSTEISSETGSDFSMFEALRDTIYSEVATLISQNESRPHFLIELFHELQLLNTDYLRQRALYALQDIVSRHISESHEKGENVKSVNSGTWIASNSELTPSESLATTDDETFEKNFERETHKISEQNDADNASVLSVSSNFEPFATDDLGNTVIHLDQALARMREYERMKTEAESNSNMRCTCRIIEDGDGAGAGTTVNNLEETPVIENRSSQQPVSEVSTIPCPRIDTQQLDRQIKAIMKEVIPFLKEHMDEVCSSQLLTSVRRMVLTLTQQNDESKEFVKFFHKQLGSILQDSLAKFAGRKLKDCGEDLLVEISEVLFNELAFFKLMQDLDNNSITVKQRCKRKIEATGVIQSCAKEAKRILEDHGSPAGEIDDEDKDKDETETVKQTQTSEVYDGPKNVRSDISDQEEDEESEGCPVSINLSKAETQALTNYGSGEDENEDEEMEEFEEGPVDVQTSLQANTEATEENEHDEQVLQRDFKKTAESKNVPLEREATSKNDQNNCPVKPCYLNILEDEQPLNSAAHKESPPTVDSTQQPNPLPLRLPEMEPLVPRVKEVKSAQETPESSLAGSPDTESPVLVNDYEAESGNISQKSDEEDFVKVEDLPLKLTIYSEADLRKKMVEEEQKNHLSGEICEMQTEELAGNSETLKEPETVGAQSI
# UniProt Q9BVV6: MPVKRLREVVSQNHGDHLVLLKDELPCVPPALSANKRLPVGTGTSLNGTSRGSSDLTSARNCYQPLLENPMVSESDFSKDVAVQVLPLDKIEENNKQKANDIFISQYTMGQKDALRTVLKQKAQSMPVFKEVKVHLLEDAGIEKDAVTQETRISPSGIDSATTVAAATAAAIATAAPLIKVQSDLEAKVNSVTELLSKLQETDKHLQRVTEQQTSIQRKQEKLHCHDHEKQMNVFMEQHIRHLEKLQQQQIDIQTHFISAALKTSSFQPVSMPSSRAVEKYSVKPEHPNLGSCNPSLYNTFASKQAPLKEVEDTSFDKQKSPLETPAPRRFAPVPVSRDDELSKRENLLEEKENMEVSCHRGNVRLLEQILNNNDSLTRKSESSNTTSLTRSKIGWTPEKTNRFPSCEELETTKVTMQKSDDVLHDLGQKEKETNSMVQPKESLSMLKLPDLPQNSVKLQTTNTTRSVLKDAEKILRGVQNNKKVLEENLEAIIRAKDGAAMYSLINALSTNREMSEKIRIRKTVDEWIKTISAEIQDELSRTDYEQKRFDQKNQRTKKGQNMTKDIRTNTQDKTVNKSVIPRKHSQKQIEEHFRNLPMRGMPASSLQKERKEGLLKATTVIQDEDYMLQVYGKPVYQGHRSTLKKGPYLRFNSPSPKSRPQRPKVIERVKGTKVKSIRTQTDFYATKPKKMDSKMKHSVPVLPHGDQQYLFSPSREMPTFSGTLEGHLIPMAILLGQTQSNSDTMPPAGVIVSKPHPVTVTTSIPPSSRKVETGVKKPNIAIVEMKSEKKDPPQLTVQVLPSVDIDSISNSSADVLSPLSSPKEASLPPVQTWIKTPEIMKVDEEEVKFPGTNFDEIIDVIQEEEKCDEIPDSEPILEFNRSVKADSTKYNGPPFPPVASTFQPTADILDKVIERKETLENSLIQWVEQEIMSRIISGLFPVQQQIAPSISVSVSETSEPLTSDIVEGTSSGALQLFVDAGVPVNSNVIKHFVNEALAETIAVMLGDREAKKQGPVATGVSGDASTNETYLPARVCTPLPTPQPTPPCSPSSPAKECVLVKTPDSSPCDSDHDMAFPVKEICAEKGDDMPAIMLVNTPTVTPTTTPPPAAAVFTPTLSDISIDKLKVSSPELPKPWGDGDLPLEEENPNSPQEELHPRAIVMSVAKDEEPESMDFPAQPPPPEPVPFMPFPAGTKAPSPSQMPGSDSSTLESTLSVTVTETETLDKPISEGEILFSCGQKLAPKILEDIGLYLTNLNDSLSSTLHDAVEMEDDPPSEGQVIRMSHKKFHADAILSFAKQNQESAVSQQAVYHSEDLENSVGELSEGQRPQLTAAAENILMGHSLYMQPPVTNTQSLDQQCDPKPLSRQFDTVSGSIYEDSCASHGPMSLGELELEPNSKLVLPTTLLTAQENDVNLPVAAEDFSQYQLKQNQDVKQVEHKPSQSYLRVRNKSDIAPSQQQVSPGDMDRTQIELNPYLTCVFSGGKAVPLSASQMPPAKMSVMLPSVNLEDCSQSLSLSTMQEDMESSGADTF
# These are yes or no findings as the source states them, for the method shown. In cells and extracts the contact can be indirect. Here binding means that the protein was enriched with, or labelled near, the bait; the list need not be complete.
# B1: CEP90/PIBF1 (endogenous) (protein, UniProt Q8WXW3 1-757)
# chain: MSRKISKESKKVNISSSLESEDISLETTVPTDDISSSEEREGKVRITRQLIERKELLHNIQLLKIELSQKTMMIDNLKVDYLTKIEELEEKLNDALHQKQLLTLRLDNQLAFQQKDASKYQELMKQEMETILLRQKQLEETNLQLREKAGDVRRNLRDFELTEEQYIKLKAFPEDQLSIPEYVSVRFYELVNPLRKEICELQVKKNILAEELSTNKNQLKQLTETYEEDRKNYSEVQIRCQRLALELADTKQLIQQGDYRQENYDKVKSERDALEQEVIELRRKHEILEASHMIQTKERSELSKEVVTLEQTVTLLQKDKEYLNRQNMELSVRCAHEEDRLERLQAQLEESKKAREEMYEKYVASRDHYKTEYENKLHDELEQIRLKTNQEIDQLRNASREMYERENRNLREARDNAVAEKERAVMAEKDALEKHDQLLDRYRELQLSTESKVTEFLHQSKLKSFESERVQLLQEETARNLTQCQLECEKYQKKLEVLTKEFYSLQASSEKRITELQAQNSEHQARLDIYEKLEKELDEIIMQTAEIENEDEAERVLFSYGYGANVPTTAKRRLKQSVHLARRVLQLEKQNSLILKDLEHRKDQVTQLSQELDRANSLLNQTQQPYRYLIESVRQRDSKIDSLTESIAQLEKDVSNLNKEKSALLQTKNQMALDLEQLLNHREELAAMKQILVKMHSKHSENSLLLTKTEPKHVTENQKSKTLNVPKEHEDNIFTPKPTLFTKKEAPEWSKKQKMKT
# B2: Cep131 (endogenous) (protein, UniProt Q9UPN4 1-1083)
# chain: MKGTRAIGSVPERSPAGVDLSLTGLPPPVSRRPGSAATTKPIVRSVSVVTGSEQKRKVLEATGPGGSQAINNLRRSNSTTQVSQPRSGSPRPTEPTDFLMLFEGSPSGKKRPASLSTAPSEKGATWNVLDDQPRGFTLPSNARSSSALDSPAGPRRKECTVALAPNFTANNRSNKGAVGNCVTTMVHNRYTPSERAPPLKSSNQTAPSLNNIIKAATCEGSESSGFGKLPKNVSSATHSARNNTGGSTGLPRRKEVTEEEAERFIHQVNQATVTIQRWYRHQVQRRGAGAARLEHLLQAKREEQRQRSGEGTLLDLHQQKEAARRKAREEKARQARRAAIQELQQKRALRAQKASTAERGPPENPRETRVPGMRQPAQELSPTPGGTAHQALKANNTGGGLPAAGPGDRCLPTSDSSPEPQQPPEDRTQDVLAQDAAGDNLEMMAPSRGSAKSRGPLEELLHTLQLLEKEPDVLPRPRTHHRGRYAWASEVTTEDDASSLTADNLEKFGKLSAFPEPPEDGTLLSEAKLQSIMSFLDEMEKSGQDQLDSQQEGWVPEAGPGPLELGSEVSTSVMRLKLEVEEKKQAMLLLQRALAQQRDLTARRVKETEKALSRQLQRQREHYEATIQRHLAFIDQLIEDKKVLSEKCEAVVAELKQEDQRCTERVAQAQAQHELEIKKLKELMSATEKARREKWISEKTKKIKEVTVRGLEPEIQKLIARHKQEVRRLKSLHEAELLQSDERASQRCLRQAEELREQLEREKEALGQQERERARQRFQQHLEQEQWALQQQRQRLYSEVAEERERLGQQAARQRAELEELRQQLEESSSALTRALRAEFEKGREEQERRHQMELNTLKQQLELERQAWEAGRTRKEEAWLLNREQELREEIRKGRDKEIELVIHRLEADMALAKEESEKAAESRIKRLRDKYEAELSELEQSERKLQERCSELKGQLGEAEGENLRLQGLVRQKERALEDAQAVNEQLSSERSNLAQVIRQEFEDRLAASEEETRQAKAELATLQARQQLELEEVHRRVKTALARKEEAVSSLRTQHEAAVKRADHLEELLEQHRRPTPSTK
# B3: OFIP/MNR/KIAA0753 (endogenous) (protein, UniProt Q2KHM9 1-967)
# chain: MGPGQPASTCVHLAPRTQLDGRSDPKVLQTQNQLQFNRNVPTHSSNLAIRYSCPHAIRIEKLKHSYNESYHCKDADCRVGPDLGSSVSFSVISQERLSYAVHLARRDVKRRQFEKHIKEHHLRSQPQSSQKCGHTKYKIPDHRVERKESKSQAACQCSHQPSKVEISSSGAKVYLYSSHPGQSDLTVPNSPPTHDPGLQPHPRIGDHKNISEQKSLLEVQRLQKELSSCIHKIEEVTKKDRLEEALDPDEERRIRIRRQEQAARSARMLYVLQQQVKEIQEELDKLSPHKIKHTKKSWAMSKLAAAHRGAIRALQMFVTQFTDRGEHPLPARCKELGSLIRQLSLCSVKLDADPSVPDVVIDILQQIEALESLLEKKLSPKKVKKCFSEIRSRFPIGSQKALERWPSTSPKGERRPLTAKDTFPQETSRPSVAKQLLADKYQPDTELPETQRLQSELDVLDADIVLEEGPFILDQSASFKDEVLAVAKTKAGKKKPVTENVPFRKKDTLAPARQQGLRKAERGRQSQPHSKSRVQQTTVSSRLKMNRQPVKDRKAPWIPPNPTSPPASPKCAAWLKVKTSPRDATKEPLQQEDPQEESHLTGAVEHEAARLAWLDAETSKRLKELEELKAKEIDSMQKQRLDWLDAETSRRTKELNELKAEEMYRLQQLSVSATHLADKVEEAVLDRLKPLLVKAQRVNSTTEANIHLKDGSSVNTAKAQPAQEVAAVDFESNNIRQLDDFLEDCASELWAVTHAKILGSETLATVEDSKDSPDLEIMMRRMEEMEKYQESVRQRYNKIAYADPRLWMQEENNDQKISAISEKPLSPHPIRITKTVDRKDPAVNIMLERPCNGNSLDESVGTEEGSEKREAPLLSLAEDSQQKEGRAPLFVPPGMQHSIGDYCSRFEQYLRIISHEAVGSFNPWLIAESFSEELVDEALGAVAAELQDMCEDYAEAVFTSEFLEAAT
# Biological target: myc-BirA*-FOPNL (human) (UniProt Q96NB1)
# Test: proximity labelling; BioID: Flp-In T-REx HEK293 expressing myc-BirA*-FOPNL (control myc-BirA*), 50 uM biotin 24 h with tetracycline; isolated centrosome-nucleus complexes lysed; biotinylated proteins on streptavidin beads; LC-MS/MS
row,binding,Molecule
1,binds,CEP350 (endogenous) (from UniProt Q5VT06 1-3117)
2,binds,PCM1 (endogenous) (from UniProt Q15154 1-2024)
3,binds,Talpid3/KIAA0586 (endogenous) (from UniProt Q9BVV6 1-1533)
4,binds,B1
5,binds,B2
6,binds,B3
